{"source": "paper PMC3785438", "key": {"[1]": {"target": "T1, S100A14 (endogenous, CaLH3 cells) (human (endogenous in CaLH3)), Q9HCY8", "T1 chain": "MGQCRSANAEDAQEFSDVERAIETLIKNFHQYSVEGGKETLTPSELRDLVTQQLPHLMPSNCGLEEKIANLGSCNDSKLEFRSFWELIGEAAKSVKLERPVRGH", "experiment": "co-IP; CaLH3 lysate (RIPA buffer), precipitated with anti-S100A14 antibody in the presence of 0, 0.5 or 2 mM CaCl2, 4°C; blotted with anti-S100A16", "conditions": "remark: other sources report otherwise"}, "[2]": {"target": "T2, S100A16 (endogenous, CaLH3 cells) (human (endogenous in CaLH3)), Q96FQ6", "T2 chain": "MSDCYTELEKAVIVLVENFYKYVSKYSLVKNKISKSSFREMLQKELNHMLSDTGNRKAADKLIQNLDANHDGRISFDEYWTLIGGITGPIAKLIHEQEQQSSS", "experiment": "co-IP; reverse: CaLH3 lysate (RIPA buffer), precipitated with anti-S100A16 antibody, 0 mM CaCl2, 4°C; blotted with anti-S100A14", "conditions": "remark: other sources report otherwise"}, "[3]": {"target": "T3, S100A14 (endogenous, CaLH3 cells) (human (endogenous in CaLH3)) (UniProt Q9HCY8)", "T3 sequence": "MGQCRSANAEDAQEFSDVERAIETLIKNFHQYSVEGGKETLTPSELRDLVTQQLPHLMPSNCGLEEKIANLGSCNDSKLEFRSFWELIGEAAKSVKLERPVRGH", "experiment": "condition: only with 5 mM EDTA along with 2 mM CaCl2; co-IP; CaLH3 lysate (RIPA buffer), precipitated with anti-S100A14 antibody in the presence of 2 mM CaCl2 with 5 mM EDTA, 4°C; blotted with anti-S100A16"}}, "note": "Results are given in words; binding and its absence hold for the method and conditions named. In cells and extracts the contact can be indirect. Some binding calls cover weakened binding; strength is not graded here."}
{"binder": "S100A16 (endogenous, CaLH3 cells), Q96FQ6 1-103 (protein) MSDCYTELEKAVIVLVENFYKYVSKYSLVKNKISKSSFREMLQKELNHMLSDTGNRKAADKLIQNLDANHDGRISFDEYWTLIGGITGPIAKLIHEQEQQSSS", "values": [{"measurement": "binding", "setting": "[1]", "value": "binds"}]}
{"binder": "S100A14 (endogenous, CaLH3 cells), Q9HCY8 1-104 (protein) MGQCRSANAEDAQEFSDVERAIETLIKNFHQYSVEGGKETLTPSELRDLVTQQLPHLMPSNCGLEEKIANLGSCNDSKLEFRSFWELIGEAAKSVKLERPVRGH", "values": [{"measurement": "binding", "setting": "[2]", "value": "binds"}]}
{"binder": "S100A16 (endogenous, CaLH3 cells) (protein, UniProt Q96FQ6 1-103) MSDCYTELEKAVIVLVENFYKYVSKYSLVKNKISKSSFREMLQKELNHMLSDTGNRKAADKLIQNLDANHDGRISFDEYWTLIGGITGPIAKLIHEQEQQSSS", "values": [{"measurement": "binding", "setting": "[3]", "value": "no binding"}]}
